{"sequences": {"note": "Amino acid sequences for entries named in this document (tags omitted). A change or cut given only in a name is not applied to a line headed by its entry.", "UniProt Q9UNA4": "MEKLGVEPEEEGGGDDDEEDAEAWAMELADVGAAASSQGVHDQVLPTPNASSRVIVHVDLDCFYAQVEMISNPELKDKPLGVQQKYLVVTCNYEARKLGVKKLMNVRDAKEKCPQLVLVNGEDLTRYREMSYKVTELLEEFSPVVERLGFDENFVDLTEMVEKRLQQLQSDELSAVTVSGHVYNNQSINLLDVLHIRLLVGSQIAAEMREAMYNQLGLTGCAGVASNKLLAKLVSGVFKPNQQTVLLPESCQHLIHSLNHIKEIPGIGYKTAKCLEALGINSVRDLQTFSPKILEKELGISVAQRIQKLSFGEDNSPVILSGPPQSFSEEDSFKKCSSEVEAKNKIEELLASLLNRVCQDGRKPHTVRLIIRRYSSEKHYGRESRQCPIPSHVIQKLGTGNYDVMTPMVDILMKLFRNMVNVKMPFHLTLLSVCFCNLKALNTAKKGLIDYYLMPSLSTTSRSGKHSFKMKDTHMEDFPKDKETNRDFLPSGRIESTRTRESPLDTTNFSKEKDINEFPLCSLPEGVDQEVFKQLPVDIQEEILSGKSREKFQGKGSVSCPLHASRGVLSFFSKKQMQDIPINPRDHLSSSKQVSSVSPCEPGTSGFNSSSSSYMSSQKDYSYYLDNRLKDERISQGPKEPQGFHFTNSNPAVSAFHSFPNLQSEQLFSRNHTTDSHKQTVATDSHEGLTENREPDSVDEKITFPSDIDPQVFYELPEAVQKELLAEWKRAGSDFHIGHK"}, "source": "PubChem BioAssay AID588590", "about": "(National Center for Advancing Translational Sciences (NCATS), 2011)", "note": "About 4,000 (1%) of roughly 390,000 compounds were called active. Inconclusive results, whose numbers are uncertain, are shown with a selection of clear calls. Calls come from the whole dose curve; as a rule, active = well fitted inhibition curve with a large enough effect; inconclusive = small, poorly fitted or top-dose-only effect, or another doubt; inactive = no such curve, though single readings can be large or run the other way. Where the call is inconclusive, the potency comes from a doubtful curve fit. Potency is the fitted concentration of half-maximal effect.", "data": [{"molecular_target": "DNA polymerase iota (Homo sapiens) (UniProt Q9UNA4)", "assay": "qHTS for Inhibitors of Polymerase Iota", "details": "Pol iota fluorescent replication assay, 10 min; series mostly up to 115 µM", "source_text": "DNA polymerases, such as Pol iota, are specifically involved in DNA repair. Pol iota specifically plays an important role in translesion synthesis, where the normal high-fidelity DNA polymerases cannot proceed and DNA synthesis stalls. […] Thus, while pol eta's (and most likely iota's) normal function is to protect humans against the deleterious consequences of DNA damage, under certain conditions they can have deleterious effects on human health. As a consequence, we propose to utilize a high throughput replication assay to identify small molecule inhibitors of pol iota.\nIn a collaboration between the National Institute of Child Health & Human Development (NICHD) and NIH Chemical Genomics Center, a high-throughput, fluorescent screen was developed to screen the NIH Molecular Libraries Small Molecule Repository (MLSMR). This screen is used to identify inhibitors of pol iota.\nNIH Chemical Genomics Center [NCGC]\nNIH Molecular Libraries Probe Centers Network [MLPCN]\nAssay Submitter (PI): Roger Woodgate, NICHD)\nThree microliters of reagents (buffer in column 3 and 4 as negative control and 10 nM Pol iota in columns 1, 2, and 5-48) will be dispensed into 1,536-well black solid-bottomed plate. Compounds (23 nL) will be transferred via Kalypsys pin tool equipped with 1536-pin array. The plates will then be incubated for 15 min at room temperature, and 1 µL substrate (50 nM final concentration) will be added to start the reaction and kinetically read twice at 0 min and 10 min on the Viewlux reader.", "values": [{"smiles": "COc1cc(/C=C2\\SC(=S)N(NC(=O)c3cccc(O)c3)C2=O)ccc1O", "Potency": "active: 39.8 µM"}, {"smiles": "O=C(CSc1nccn1-c1ccccc1)NCc1ccc2c(c1)OCO2", "Potency": "inconclusive: 100 µM [inhibitor, partial curve, poor fit]"}, {"smiles": "Cc1c(O)ccc(C(=O)CN2CCN(c3ccccc3F)CC2)c1O", "Potency": "inactive"}, {"smiles": "CSc1nc2ccc(NC(=O)NC(=O)c3c(F)cccc3F)cc2s1", "Potency": "inactive"}, {"smiles": "O=C(CCN1c2ccccc2Sc2ccccc21)OCC(=O)N1CCN(C(=O)c2ccco2)CC1", "Potency": "inconclusive: 15.8 µM [inhibitor, single point]"}, {"smiles": "NC(=O)c1ccc(NC(=O)COC(=O)c2cc3ccccc3cc2O)cc1", "Potency": "inconclusive: 20 µM [inhibitor, partial curve, poor fit]"}, {"smiles": "COc1ccc(-n2c(SCC(=O)NCc3ccc(Cl)cc3)nc3ccsc3c2=O)cc1", "Potency": "inactive"}, {"smiles": "Cc1ccccc1NC(=O)Cc1nc(COC(=O)c2ccc(S(C)(=O)=O)c([N+](=O)[O-])c2)cs1", "Potency": "inconclusive: 39.8 µM [inhibitor, partial curve, poor fit]"}, {"smiles": "Cc1ccc(S(=O)(=O)N2CCCCC2)cc1NC(=O)CSc1ncn[nH]1", "Potency": "inconclusive: 39.8 µM [inhibitor, partial curve, poor fit]"}, {"smiles": "O=C(COC(=O)c1cnccn1)Nc1ncc(Cl)cc1Cl", "Potency": "inconclusive: 22.4 µM [inhibitor, partial curve]"}, {"smiles": "CN(C)S(=O)(=O)N(Cc1ccc(Br)cc1)c1ccccc1", "Potency": "inactive"}, {"smiles": "CCOc1cc(/C=C(\\C#N)C(=O)Nc2cccc(C(=O)O)c2)cc(Br)c1OC(=O)c1ccc(OC)cc1", "Potency": "inconclusive: 20 µM [inhibitor, partial curve, poor fit]"}, {"smiles": "O=C(COC(=O)Cc1c(Cl)cccc1Cl)NCc1ccco1", "Potency": "active: 44.7 µM"}, {"smiles": "COc1ccc(Br)cc1C1C(C(=O)Nc2ccc(C)cc2C)=C(C)Nc2ncnn21", "note": "(configuration not stated)", "Potency": "inactive"}, {"smiles": "Cc1ccc(NC(=O)C2(c3cccs3)CCOCC2)cc1Cl", "Potency": "inactive"}, {"smiles": "N#CC1=C(N)OC2=C(C(=O)CCC2)C1c1ccccc1", "note": "(configuration not stated)", "Potency": "inconclusive: 28.2 µM [inhibitor, partial curve]"}, {"smiles": "COc1ccccc1/C=C1\\SC(=S)N(NS(=O)(=O)c2ccc(C)cc2)C1=O", "Potency": "inconclusive: 70.8 µM [inhibitor, single point]"}, {"smiles": "CCC(CC)CN1C(N(C)C)=NC[C@@H]1CC(C)C", "Potency": "inconclusive: 17.8 µM [inhibitor, partial curve, poor fit]"}, {"smiles": "COCCNC(=O)CCC(=O)NNc1nc2ccccc2c2nc(C)nn12", "Potency": "inconclusive: 89.1 µM [inhibitor, single point]"}, {"smiles": "Cc1ccc2c(CNCCc3ccccc3)c(C(=O)O)n(Cc3ccccc3C)c2c1", "Potency": "inactive"}, {"smiles": "CC(C)CC(OC(=O)c1cccs1)C(=O)NCc1ccco1", "note": "(configuration not stated)", "Potency": "inconclusive: 25.1 µM [inhibitor, single point]"}, {"smiles": "COc1cccc(NC(=O)Cn2nnc(C(=O)NCc3cccs3)c2N)c1", "Potency": "inconclusive: 79.4 µM [inhibitor, single point]"}, {"smiles": "O=C(O)c1ccccc1-c1ccc(/C=c2\\sc3nc4cc(Br)cnc4n3c2=O)o1", "Potency": "inconclusive: 1.26 µM [inhibitor, full curve, poor fit]"}, {"smiles": "CC[C@]12c3[nH]c4cc(-c5ccco5)ccc4c3CCN1C(=O)[C@@H](CC(=O)NC/C=C(\\C)CCC=C(C)C)C[C@@H]2C(=O)N1CCN(C(=O)C2CC2)CC1", "Potency": "inconclusive: 7.94 µM [inhibitor, partial curve, poor fit]"}, {"smiles": "CCN(CC)c1ccc2nc3ccccc3[n+](CC)c2c1", "Potency": "inconclusive: 35.5 µM [inhibitor, full curve]"}, {"smiles": "Cc1ccc(C)c(CSc2nnc3[nH]c(=O)cc(C)n23)c1", "Potency": "inactive"}, {"smiles": "Cc1nc(Nc2ccc(O)cc2)c2c3c(sc2n1)CCCC3", "Potency": "inconclusive: 20 µM [inhibitor, partial curve, poor fit]"}, {"smiles": "CCOC(=O)C1=C(C)N=c2s/c(=C/c3cccc([N+](=O)[O-])c3O)c(=O)n2C1c1ccccc1", "note": "(configuration not stated)", "Potency": "inconclusive: 10 µM [inhibitor, partial curve, poor fit]"}, {"smiles": "CCN(CC)CCNc1nc2cc(OC)c(OC)cc2c2nc(-c3ccccc3)nn12", "Potency": "inconclusive: 79.4 µM [inhibitor, partial curve, poor fit]"}, {"smiles": "CCCCC1=CC2=CC(=O)C(C)(OC(=O)c3cccs3)C(=O)C2=CO1", "note": "(configuration not stated)", "Potency": "inconclusive: 28.2 µM [inhibitor, full curve, poor fit]"}, {"smiles": "CCCCNc1c(-c2ccc(OC)c(SC(C)CC)c2)nc2cnccn12", "note": "(configuration not stated)", "Potency": "inconclusive: 39.8 µM [inhibitor, single point]"}, {"smiles": "COc1ccc(C)cc1NC(=O)c1noc2c1CSc1ccccc1-2", "Potency": "inconclusive: 89.1 µM [inhibitor, single point]"}, {"smiles": "CCCc1nc2ccccc2n1C(=S)SC", "Potency": "inconclusive: 79.4 µM [inhibitor, single point]"}, {"smiles": "Cc1noc(C)c1COC(=O)CCCc1c[nH]c2ccccc12", "Potency": "inconclusive: 17.8 µM [inhibitor, partial curve, poor fit]"}, {"smiles": "CC(C)C(NC(=O)/C(=C/c1ccco1)NC(=O)c1ccc(Br)o1)C(=O)O", "note": "(configuration not stated)", "Potency": "inconclusive: 31.6 µM [inhibitor, partial curve, poor fit]"}, {"smiles": "CC(C)=CCC/C(C)=C/CNC(=O)C[C@H]1C[C@H](C(=O)N2CCCCC2)[C@@]2(C)c3[nH]c4cc(-c5ccco5)ccc4c3CCN2C1=O", "Potency": "inconclusive: 31.6 µM [inhibitor, partial curve, poor fit]"}, {"smiles": "CCN(CC)C(=O)Cn1c(=O)cc(C)c2c(C)nn(-c3cccc(Cl)c3C)c21", "Potency": "inactive"}, {"smiles": "Cc1ccc(NC(=O)C(Cc2c[nH]c3ccccc23)NC(=O)OC(C)(C)C)c(C)c1", "note": "(configuration not stated)", "Potency": "inactive"}, {"smiles": "COCCCNc1c2c3c(cccc3[nH]c1=O)C(=O)c1ccccc1-2", "Potency": "inconclusive: 28.2 µM [inhibitor, partial curve, poor fit]"}, {"smiles": "CNS(=O)(=O)c1cc(S(=O)(=O)NC)c2cccc3c2c1NC3=O", "Potency": "inconclusive: 25.1 µM [inhibitor, partial curve]"}, {"smiles": "O=C(O)/C=C/c1cnc2ccccc2n1", "Potency": "inactive"}, {"smiles": "Cc1ccc(NC(=O)/C=C/c2ccco2)nc1", "Potency": "inconclusive: 112 µM [inhibitor, partial curve, poor fit]"}, {"smiles": "O=C(CSc1cccc2cccnc12)N/N=C/c1ccncc1", "Potency": "inconclusive: 35.5 µM [inhibitor, partial curve, poor fit]"}, {"smiles": "COc1ccc(OCC(O)CN(C2CCCCC2)C2CCCCC2)cc1", "note": "(configuration not stated)", "Potency": "inconclusive: 39.8 µM [inhibitor, single point]"}, {"smiles": "COc1ccc(C(=O)N2CCC(n3nccc3NC(=O)C3CC3)CC2)cc1F", "Potency": "inactive"}, {"smiles": "O=c1cc(CN2CCN(c3ccc(O)cc3)CC2)nc2scc(-c3ccccc3)n12", "Potency": "inconclusive: 14.1 µM [inhibitor, full curve, poor fit]"}, {"smiles": "O=C(CN1c2cccc3cccc(c23)S1(=O)=O)NC1CCCCC1", "Potency": "inconclusive: 12.6 µM [inhibitor, partial curve, poor fit]"}, {"smiles": "CC1CCN(C(=S)c2cn(Cc3ccccc3F)c3ccccc23)CC1", "Potency": "inconclusive: 39.8 µM [inhibitor, single point]"}, {"smiles": "COc1ccccc1-c1nn2c(-c3ccco3)nnc2s1", "Potency": "inconclusive: 44.7 µM [inhibitor, partial curve]"}, {"smiles": "CC(=O)c1ccccc1S(=O)(=O)N1CCN(c2nc(-c3cccs3)nc3ccccc23)CC1", "Potency": "inconclusive: 89.1 µM [inhibitor, partial curve, poor fit]"}, {"smiles": "C#CCOCCOCCOCCNc1nc(N2CCN(C(=O)CCCCCCCCCCNC(=O)Cn3cc(CCCCCN)nn3)CC2)nc(N2CCN(C(=O)CCCCCCCCCCNC(=O)[C@H]([C@@H](C)CC)n3cc(CCCCCN)nn3)CC2)n1", "Potency": "inconclusive: 15.8 µM [inhibitor, partial curve, poor fit]"}, {"smiles": "Cc1nn(-c2ccccc2)c(NC(=O)c2ccccc2)c1Br", "Potency": "inconclusive: 89.1 µM [inhibitor, single point]"}, {"smiles": "CCOC(=O)c1c(C)[nH]c(C(=O)OCC(=O)NCc2ccc(C)cc2)c1C", "Potency": "inconclusive: 79.4 µM [inhibitor, partial curve, poor fit]"}, {"smiles": "O=C(NN=C1c2ccccc2-c2ccccc21)c1ccccc1Br", "Potency": "inconclusive: 79.4 µM [inhibitor, partial curve, poor fit]"}, {"smiles": "CCCNC(=O)c1ccc(N2CCC3(CC2)CC(c2ccccc2)=NO3)c(NC(=O)c2cccc(C)c2)c1", "Potency": "inconclusive: 17.8 µM [inhibitor, full curve]"}, {"smiles": "CC(=O)Nc1nonc1-c1nnc(SCC(=O)Nc2ccc(C)cc2)n1-c1ccccc1", "Potency": "inactive"}, {"smiles": "O=C(Nc1ccc(Cl)c(Cl)c1)N1CCCCCC1", "Potency": "inconclusive: 100 µM [inhibitor, partial curve, poor fit]"}, {"smiles": "COc1ccc(/C=C/c2ccccn2)cc1OC", "Potency": "inconclusive: 20 µM [inhibitor, partial curve, poor fit]"}, {"smiles": "COc1cccc(-c2csc(NC(=O)Oc3ccccc3)n2)c1", "Potency": "inconclusive: 63.1 µM [inhibitor, partial curve, poor fit]"}, {"smiles": "COC(=O)[C@H](CCSC)NC(=O)Cn1cnc2c(NCc3ccccc3)ncnc21", "Potency": "inactive"}, {"smiles": "COc1ccc(CN2CCc3c(c(=O)n4ncc(C(=O)N5CCN(c6ccccc6OC)CC5)c4n3C)C2)cc1", "Potency": "inactive"}, {"smiles": "COc1ccc2c(c1)c(=O)oc1c(C)c(OC(C)C(=O)N[C@@H](Cc3c[nH]c4ccc(O)cc34)C(=O)O)ccc12", "note": "(some centres not stated)", "Potency": "inconclusive: 15.8 µM [inhibitor, full curve]"}]}]}
